Results from patent US20070099830A1.
No constants are given. Whether binding was seen depends on the method and setting. Binding seen in cells or lysates may run through a third protein. Some entries that bind do so weakly or less than the wild type. For some of these results: Where a sequence is shown, tags or fusion partners need not be part of it. Each block holds one binder with its values, some of them ahead of it.

Sequences of proteins named here, by UniProt entry; tags and fusion partners are left off. Residues count along the entry.
UniProt P26443, residues 54-558: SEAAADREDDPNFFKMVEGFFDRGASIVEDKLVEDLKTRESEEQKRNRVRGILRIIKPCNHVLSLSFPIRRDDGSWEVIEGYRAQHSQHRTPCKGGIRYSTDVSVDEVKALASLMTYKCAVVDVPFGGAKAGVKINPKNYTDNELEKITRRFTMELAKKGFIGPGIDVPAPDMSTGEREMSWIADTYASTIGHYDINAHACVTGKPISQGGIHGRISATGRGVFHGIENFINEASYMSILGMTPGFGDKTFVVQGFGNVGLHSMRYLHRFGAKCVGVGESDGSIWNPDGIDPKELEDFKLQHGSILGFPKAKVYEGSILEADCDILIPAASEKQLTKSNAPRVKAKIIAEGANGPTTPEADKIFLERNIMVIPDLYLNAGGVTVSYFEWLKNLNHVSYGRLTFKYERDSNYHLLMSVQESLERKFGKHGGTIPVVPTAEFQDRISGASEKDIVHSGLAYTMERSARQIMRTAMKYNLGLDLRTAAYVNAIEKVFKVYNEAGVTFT
UniProt Q9JHR7: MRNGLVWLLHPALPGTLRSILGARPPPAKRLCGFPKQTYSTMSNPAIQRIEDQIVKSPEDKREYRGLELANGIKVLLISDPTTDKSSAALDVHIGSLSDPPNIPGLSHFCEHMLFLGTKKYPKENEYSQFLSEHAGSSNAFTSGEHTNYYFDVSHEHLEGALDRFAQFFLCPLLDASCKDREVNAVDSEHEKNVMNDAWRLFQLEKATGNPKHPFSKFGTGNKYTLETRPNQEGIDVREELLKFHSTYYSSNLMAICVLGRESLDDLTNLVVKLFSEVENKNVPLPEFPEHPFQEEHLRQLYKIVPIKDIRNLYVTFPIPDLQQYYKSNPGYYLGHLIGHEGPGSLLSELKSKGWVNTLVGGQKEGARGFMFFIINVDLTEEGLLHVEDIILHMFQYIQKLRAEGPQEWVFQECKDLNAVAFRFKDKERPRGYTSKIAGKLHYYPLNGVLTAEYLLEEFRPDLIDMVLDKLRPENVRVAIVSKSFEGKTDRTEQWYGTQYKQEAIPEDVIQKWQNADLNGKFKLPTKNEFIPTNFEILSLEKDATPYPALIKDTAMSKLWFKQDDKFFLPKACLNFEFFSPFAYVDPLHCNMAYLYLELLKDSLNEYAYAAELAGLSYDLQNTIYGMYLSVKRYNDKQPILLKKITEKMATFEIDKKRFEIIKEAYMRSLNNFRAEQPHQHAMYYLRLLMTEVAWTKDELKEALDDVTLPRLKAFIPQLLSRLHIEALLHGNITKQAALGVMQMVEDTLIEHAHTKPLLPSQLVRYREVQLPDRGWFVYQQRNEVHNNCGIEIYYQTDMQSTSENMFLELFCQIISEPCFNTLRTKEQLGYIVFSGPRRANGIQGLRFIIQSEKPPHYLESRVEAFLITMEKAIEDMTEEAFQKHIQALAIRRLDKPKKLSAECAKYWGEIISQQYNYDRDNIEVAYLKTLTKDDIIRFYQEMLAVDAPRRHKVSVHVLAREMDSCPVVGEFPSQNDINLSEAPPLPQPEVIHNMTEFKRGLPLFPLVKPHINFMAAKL
UniProt P14735: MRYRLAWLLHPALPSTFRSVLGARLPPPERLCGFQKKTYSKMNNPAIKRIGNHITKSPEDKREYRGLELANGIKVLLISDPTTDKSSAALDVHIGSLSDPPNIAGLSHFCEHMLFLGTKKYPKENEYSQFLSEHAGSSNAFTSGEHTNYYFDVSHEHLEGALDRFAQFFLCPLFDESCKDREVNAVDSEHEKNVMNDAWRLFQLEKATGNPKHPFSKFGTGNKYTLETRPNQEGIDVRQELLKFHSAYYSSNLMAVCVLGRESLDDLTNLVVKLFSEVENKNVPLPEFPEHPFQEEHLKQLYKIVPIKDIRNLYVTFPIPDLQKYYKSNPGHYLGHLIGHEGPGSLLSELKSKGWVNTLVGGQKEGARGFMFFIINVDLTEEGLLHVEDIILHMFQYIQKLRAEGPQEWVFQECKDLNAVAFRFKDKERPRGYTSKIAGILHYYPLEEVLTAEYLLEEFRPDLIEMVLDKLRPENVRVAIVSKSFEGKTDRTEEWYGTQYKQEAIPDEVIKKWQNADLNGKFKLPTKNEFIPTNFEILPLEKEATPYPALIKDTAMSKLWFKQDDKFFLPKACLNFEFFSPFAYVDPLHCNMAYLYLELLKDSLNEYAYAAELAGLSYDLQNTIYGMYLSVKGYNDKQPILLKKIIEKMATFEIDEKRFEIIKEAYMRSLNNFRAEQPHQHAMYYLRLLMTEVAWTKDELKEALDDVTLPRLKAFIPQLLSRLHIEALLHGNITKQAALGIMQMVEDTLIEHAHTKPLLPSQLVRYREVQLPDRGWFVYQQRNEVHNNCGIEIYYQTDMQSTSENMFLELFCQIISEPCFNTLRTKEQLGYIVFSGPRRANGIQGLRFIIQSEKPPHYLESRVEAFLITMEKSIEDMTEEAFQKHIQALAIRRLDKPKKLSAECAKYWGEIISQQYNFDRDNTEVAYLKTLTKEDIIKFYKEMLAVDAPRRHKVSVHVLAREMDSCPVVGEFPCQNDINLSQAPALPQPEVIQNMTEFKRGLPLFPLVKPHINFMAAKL

How the values were obtained:
[1] = molecular target: glutamate dehydrogenase (endogenous, MIN6 cells) (mouse) (UniProt P26443); assay: co-immunoprecipitation of endogenous proteins from MIN6 cells, western blot
[2] = molecular target: insulin degrading enzyme (endogenous, MIN6 cells) (mouse) (UniProt Q9JHR7); assay: as above
[3] = molecular target: glutamate dehydrogenase (endogenous, MIN6 cells) (mouse) (UniProt P26443); assay: co-immunoprecipitation from MIN6 cells with anti-mSirt4, western blot (figure legend)
[4] = molecular target: insulin degrading enzyme (endogenous, 293T cells) (human) (UniProt P14735); assay: co-immunoprecipitation from 293T cells with α-FLAG, western blot

binding [1]: binds
binding [2]: binds
binding [3]: binds
B1: mouse Sirt4 (endogenous, MIN6 cells) (enzyme)
chain: SGLFVPPSPPLDPEKIKELQRFISLSKKLLVMTGAGISTESSIPDYRSEKVGLYARTDRRPIQHIDFVRSAPVRQRYWARNFVGWPQFSSHQPNPAHWALSNWERLGKLHWLVTQNVDALHSKAGSQRLTELHGCMHRVLCLNCGEQTARRVLQERFQALNPSWSAEAQGVAPDGDVFLTEEQVRSFQVPCCDRCGGPLKPDVVFFGDTVNPDKVDFVHRRVKEADSLLVVGSSLQVYSGYRFILTAREQKLPIAILNIGPTRSDDLACLKLDSRCGELLPLIDPRRQHSDVQRLEMNFPLSSAAQDP

binding [4]: binds
B2: human Sirt4 with a C-terminal FLAG (enzyme, not shown: small tags and cut ends)
chain: IGLFVPASPPLDPEKVKELQRFITLSKRLLVMTGAGISTESGIPDYRSEKVGLYARTDRRPIQHGDFVRSAPIRQRYWARNFVGWPQFSSHQPNPAHWALSTWEKLGKLYWLVTQNVDALHTKAGSRRLTELHGCMDRVLCLDCGEQTPRGVLQERFQVLNPTWSAEAHGLAPDGDVFLSEEQVRSFQVPTCVQCGGHLKPDVVFFGDTVNPDKVDFVHKRVKEADSLLVVGSSLQVYSGYRFILTAWEKKLPIAILNIGPTRSDDLACLKLNSRCGELLPLIDPC
